Reference: patent US20190142913A1
No constants are given. Whether binding was seen depends on the method and setting. Some binding calls cover weakened binding; strength is not graded here. One block for each substance: values may come before it.

By UniProt entry, the sequences of proteins in these tests, tags left out. Where a name states a change or a piece, a line headed by the entry shows the natural chain unless it says otherwise. Residues count along the entry.
UniProt Q01973, residues 30-937: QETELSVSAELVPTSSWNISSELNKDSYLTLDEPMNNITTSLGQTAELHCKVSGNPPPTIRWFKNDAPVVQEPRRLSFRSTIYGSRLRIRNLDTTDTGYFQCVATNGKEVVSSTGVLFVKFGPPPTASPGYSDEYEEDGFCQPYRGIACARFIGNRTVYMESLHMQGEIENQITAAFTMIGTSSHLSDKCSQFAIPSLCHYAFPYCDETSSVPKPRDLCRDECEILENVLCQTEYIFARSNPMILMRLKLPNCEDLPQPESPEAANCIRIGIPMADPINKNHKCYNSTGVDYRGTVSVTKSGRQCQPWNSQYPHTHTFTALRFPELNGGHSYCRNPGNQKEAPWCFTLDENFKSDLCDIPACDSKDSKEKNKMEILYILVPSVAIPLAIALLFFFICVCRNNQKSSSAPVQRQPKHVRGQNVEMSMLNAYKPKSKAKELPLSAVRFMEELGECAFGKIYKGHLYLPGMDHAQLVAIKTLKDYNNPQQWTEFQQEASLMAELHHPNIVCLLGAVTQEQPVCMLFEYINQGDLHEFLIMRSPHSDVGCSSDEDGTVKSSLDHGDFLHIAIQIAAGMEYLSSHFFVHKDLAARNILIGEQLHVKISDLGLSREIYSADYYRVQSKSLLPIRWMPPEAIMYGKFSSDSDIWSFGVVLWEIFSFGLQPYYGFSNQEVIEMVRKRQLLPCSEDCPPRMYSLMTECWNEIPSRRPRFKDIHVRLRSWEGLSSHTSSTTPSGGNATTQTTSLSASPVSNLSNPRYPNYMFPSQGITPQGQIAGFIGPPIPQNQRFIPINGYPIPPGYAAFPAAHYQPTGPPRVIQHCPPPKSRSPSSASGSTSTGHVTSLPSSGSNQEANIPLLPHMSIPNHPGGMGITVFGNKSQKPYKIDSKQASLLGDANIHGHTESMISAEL
UniProt P11021, residues 19-654: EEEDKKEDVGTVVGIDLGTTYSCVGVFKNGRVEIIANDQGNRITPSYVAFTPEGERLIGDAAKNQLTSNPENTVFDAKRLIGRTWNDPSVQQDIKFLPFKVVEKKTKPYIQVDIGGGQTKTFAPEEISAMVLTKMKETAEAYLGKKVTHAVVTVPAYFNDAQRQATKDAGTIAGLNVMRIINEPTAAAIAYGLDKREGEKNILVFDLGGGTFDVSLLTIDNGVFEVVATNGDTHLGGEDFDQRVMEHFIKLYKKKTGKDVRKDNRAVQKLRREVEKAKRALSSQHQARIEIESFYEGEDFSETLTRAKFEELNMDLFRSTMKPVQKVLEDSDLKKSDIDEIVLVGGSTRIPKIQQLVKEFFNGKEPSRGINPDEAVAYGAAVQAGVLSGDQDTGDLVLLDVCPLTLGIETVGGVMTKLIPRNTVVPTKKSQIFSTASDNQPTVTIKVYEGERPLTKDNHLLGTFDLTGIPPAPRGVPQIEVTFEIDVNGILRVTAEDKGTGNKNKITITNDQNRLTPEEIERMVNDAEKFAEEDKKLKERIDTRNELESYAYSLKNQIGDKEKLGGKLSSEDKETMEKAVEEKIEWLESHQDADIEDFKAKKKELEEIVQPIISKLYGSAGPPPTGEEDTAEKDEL
UniProt P00747: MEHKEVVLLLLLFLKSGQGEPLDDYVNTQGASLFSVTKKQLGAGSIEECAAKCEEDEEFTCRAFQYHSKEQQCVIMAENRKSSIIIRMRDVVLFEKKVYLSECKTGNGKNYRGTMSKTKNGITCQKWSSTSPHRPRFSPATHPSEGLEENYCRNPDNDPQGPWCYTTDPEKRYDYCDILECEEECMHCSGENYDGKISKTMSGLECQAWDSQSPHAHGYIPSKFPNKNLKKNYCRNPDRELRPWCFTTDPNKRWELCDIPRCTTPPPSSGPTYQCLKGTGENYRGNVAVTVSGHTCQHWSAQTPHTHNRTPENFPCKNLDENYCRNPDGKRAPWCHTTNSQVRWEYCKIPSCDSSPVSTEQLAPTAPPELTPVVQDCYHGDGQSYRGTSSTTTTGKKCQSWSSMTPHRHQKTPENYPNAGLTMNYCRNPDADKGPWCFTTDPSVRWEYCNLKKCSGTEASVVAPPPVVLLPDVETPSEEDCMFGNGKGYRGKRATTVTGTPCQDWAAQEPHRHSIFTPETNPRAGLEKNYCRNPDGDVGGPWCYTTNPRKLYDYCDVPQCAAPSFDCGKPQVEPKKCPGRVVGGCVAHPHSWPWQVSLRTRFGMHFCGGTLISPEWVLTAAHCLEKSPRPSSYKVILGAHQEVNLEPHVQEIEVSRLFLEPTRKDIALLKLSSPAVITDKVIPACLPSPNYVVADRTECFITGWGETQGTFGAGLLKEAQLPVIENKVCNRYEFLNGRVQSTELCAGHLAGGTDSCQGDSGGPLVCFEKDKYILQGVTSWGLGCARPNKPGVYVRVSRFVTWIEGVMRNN

Key:
[1] = molecular target: ROR1 (receptor tyrosine kinase-like orphan receptor 1) (human) (UniProt Q01973); assay: siRNA knock down, commercial ROR1 antibodies and recombinant ROR1 kringle domain with glioma cells
[2] = molecular target: ROR1 (receptor tyrosine kinase-like orphan receptor 1) (human) (UniProt Q01973); assay: U87 glioma cells, two-colour antibody staining (co-localisation), FIG. 17
[3] = molecular target: ROR1 (receptor tyrosine kinase-like orphan receptor 1) (human) (UniProt Q01973); assay: GRP78 added to U87 glioma cells, fixed, two-colour antibody staining (co-localisation)
[4] = molecular target: ROR1 (receptor tyrosine kinase-like orphan receptor 1) (human) (UniProt Q01973); assay: pull-down from lysed dendritic cells, Western blot with an ROR1 antibody
[5] = molecular target: ROR1 (receptor tyrosine kinase-like orphan receptor 1) (human) (UniProt Q01973); assay: GRP78 pull down experiments
[6] = molecular target: ROR1 (receptor tyrosine kinase-like orphan receptor 1) (human) (UniProt Q01973); assay: GRP78 binding and crosslinking pull down against the cell surface proteome of D54 glioma cells and dendritic cells
[7] = molecular target: GRP78 (glucose-regulated protein 78), StressMarq (UniProt P11021); assay: GRP78 ELISA, direct and competition
[8] = molecular target: GRP78 (glucose-regulated protein 78), StressMarq (UniProt P11021); assay: ELISA, GRP78 coated on 96-well plate, biotinylated kringle, Neutra-avidin-HRP

Substance: K5(3-89 Active Zone)frag SEQ ID NO:1 (from UniProt P00747 477-563)
binding [7]: binds

Substance: K5-biotin complex (K5(3-89 Active Zone)frag SEQ ID NO:1-biotin complex) (from UniProt P00747 477-563)
binding [8]: binds

Substance: Kr1(1-91 Active Zone)frag SEQ ID NO:19 (from UniProt Q01973 308-396)
binding [7]: binds

Now from value to substance:

binding [1]: binds
binding [2]: binds
binding [3]: binds
Substance: GRP78 (glucose-regulated protein 78), StressMarq (from UniProt P11021 19-654)

binding [4]: binds
binding [5]: binds
binding [6]: binds
Substance: GRP78-Biotin (GRP78 (StressMarq) labeled with Biotin) (from UniProt P11021 19-654)

binding [8]: binds
Substance: Kr1-biotin complex (Kr1(1-91 Active Zone)frag SEQ ID NO:19-biotin complex) (from UniProt Q01973 308-396)
